# This is one part of the list.
# B1: B3GalT2 (Rattus norvegicus) (protein)
# chain: LMLQWRRRHCCFAKMSWNAKRSLFRTHLMGVLSLVFLFAMFLFFNHHDWLPGRPGFKENPVTYTFRGFRSTKTETNQSSLRNIWKEVVPQTLRPQTATNSNNTELSPQGVTGLENTLSANGSIYNEKGTGHPNSYHFKYIINEPEKCQEKSPFLILLIAAEPGQIEARRAIRQTWGNETLAPGIQITRIFLLGISIKLNGYLQHAIQEESIQYHDIIQQEYLDTYYNLTIKTLMGMNWVATYCPHTPYVMKTDSDMFVNTEYLIHKLLKPDLPPRHNYFTGYLMRGYAPNRNKDSKWYMPPDLYPSERYPVFCSGTGYVFSGDLAEKIFKVSLGIRRLHLEDVYVGICLAKLRVDPVPPPNEFVFNHWRVSYSSCKYSHLITSHQFQPSELIKYWNHLQQNKHNACVNAAKEKAGRYRHRKLH
# Columns and labels:
# Assay in all cases: glycan array binding signal (z-score within array); higher = stronger binding
# Details in all cases: glycan notation: IUPAC condensed, linker removed
# Glc(b1-6)Glc = biological target: Glc(b1-6)Glc
# Outline: (§1)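 The binding signal is a Z-score computed within each array. Data were drawn from 3228 arrays in the Consortium for Functional Glycomics database, restricted to those with a known protein sequence. Scores were averaged over arrays of the same protein sequence at different concentrations or buffers, and over linkers, and negative values can be taken as non-binding.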
# GlcA(b1-3)Gal = biological target: GlcA(b1-3)Gal
# Outline: as §1
# GlcA(b1-3)GlcNAc = biological target: GlcA(b1-3)GlcNAc
# Outline: as §1
# GlcA(b1-6)Gal = biological target: GlcA(b1-6)Gal
# Outline: as §1
# [1] = biological target: GlcA3S(b1-3)Gal(b1-4)GlcNAc(b1-2)Man
# Outline: as §1
# [2] = biological target: GlcA3S(b1-3)Gal(b1-4)GlcNAc(b1-3)Gal(b1-4)Glc
# Outline: as §1
# [3] = biological target: GlcNAc(a1-3)Gal(b1-4)GlcNAc
# Outline: as §1
# [4] = biological target: GlcNAc(a1-4)Gal(b1-3)GlcNAc
# Outline: as §1
# [5] = biological target: GlcNAc(a1-4)Gal(b1-4)GalNAc
# Outline: as §1
# [6] = biological target: GlcNAc(a1-4)Gal(b1-4)GlcNAc
# Outline: as §1
# [7] = biological target: GlcNAc(a1-4)Gal(b1-4)GlcNAc(b1-3)Gal(b1-4)Glc
# Outline: as §1
# [8] = biological target: GlcNAc(a1-4)Gal(b1-4)GlcNAc(b1-3)Gal(b1-4)GlcNAc
# Outline: as §1
# [9] = biological target: GlcNAc(a1-4)Gal(b1-4)GlcNAc(b1-3)Gal(b1-4)GlcNAc(b1-3)Gal(b1-4)GlcNAc
# Outline: as §1
# [10] = biological target: GlcNAc(a1-4)Gal(b1-4)GlcNAc(b1-3)Gal(b1-4)[Fuc(a1-3)]GlcNAc(b1-3)Gal(b1-4)[Fuc(a1-3)]GlcNAc
# Outline: as §1
# [11] = biological target: GlcNAc(a1-6)Gal(b1-4)GlcNAc
# Outline: as §1
# [12] = biological target: GlcNAc(b1-2)Gal(b1-3)GalNAc
# Outline: as §1
# [13] = biological target: GlcNAc(b1-2)Man(a1-3)[GlcNAc(b1-2)Man(a1-6)]Man(b1-4)GlcNAc(b1-4)GlcNAc
# Outline: as §1
# [14] = biological target: GlcNAc(b1-2)Man(a1-3)[GlcNAc(b1-2)Man(a1-6)]Man(b1-4)GlcNAc(b1-4)[Fuc(a1-6)]GlcNAc
# Outline: as §1
# [15] = biological target: GlcNAc(b1-2)Man(a1-3)[GlcNAc(b1-4)][GlcNAc(b1-2)Man(a1-6)]Man(b1-4)GlcNAc(b1-4)GlcNAc
# Outline: as §1
# [16] = biological target: GlcNAc(b1-2)Man(a1-3)[GlcNAc(b1-4)][GlcNAc(b1-2)Man(a1-6)]Man(b1-4)GlcNAc(b1-4)[Fuc(a1-6)]GlcNAc
# Outline: as §1
# [17] = biological target: GlcNAc(b1-2)[GlcNAc(b1-4)]Man(a1-3)[GlcNAc(b1-2)Man(a1-6)]Man(b1-4)GlcNAc(b1-4)GlcNAc
# Outline: as §1
# [18] = biological target: GlcNAc(b1-2)[GlcNAc(b1-4)]Man(a1-3)[GlcNAc(b1-4)][GlcNAc(b1-2)Man(a1-6)]Man(b1-4)GlcNAc(b1-4)GlcNAc
# Outline: as §1
# [19] = biological target: GlcNAc(b1-2)[GlcNAc(b1-4)]Man(a1-3)[GlcNAc(b1-4)][GlcNAc(b1-2)[GlcNAc(b1-6)]Man(a1-6)]Man(b1-4)GlcNAc(b1-4)GlcNAc
# Outline: as §1
# [20] = biological target: GlcNAc(b1-2)[GlcNAc(b1-4)]Man(a1-3)[GlcNAc(b1-4)][GlcNAc(b1-2)[GlcNAc(b1-6)]Man(a1-6)]Man(b1-4)GlcNAc(b1-4)[Fuc(a1-6)]GlcNAc
# Outline: as §1
# [21] = biological target: GlcNAc(b1-2)[GlcNAc(b1-6)]Man(a1-6)[GlcNAc(b1-2)Man(a1-3)]Man(b1-4)GlcNAc(b1-4)GlcNAc
# Outline: as §1
# [22] = biological target: GlcNAc(b1-2)[GlcNAc(b1-6)]Man(a1-6)[GlcNAc(b1-2)Man(a1-3)]Man(b1-4)GlcNAc(b1-4)[Fuc(a1-6)]GlcNAc
# Outline: as §1
# [23] = biological target: GlcNAc(b1-2)[GlcNAc(b1-6)]Man(a1-6)[GlcNAc(b1-4)][GlcNAc(b1-2)Man(a1-3)]Man(b1-4)GlcNAc(b1-4)GlcNAc
# Outline: as §1
# GlcNAc(b1-3)Fuc = biological target: GlcNAc(b1-3)Fuc
# Outline: as §1
# GlcNAc(b1-3)Gal = biological target: GlcNAc(b1-3)Gal
# Outline: as §1
# [24] = biological target: GlcNAc(b1-3)Gal(b1-3)GalNAc
# Outline: as §1
# GlcNAc(b1-3)Gal(b1-4)Glc = biological target: GlcNAc(b1-3)Gal(b1-4)Glc
# Outline: as §1
# [25] = biological target: GlcNAc(b1-3)Gal(b1-4)GlcNAc
# Outline: as §1
# [26] = biological target: GlcNAc(b1-3)Gal(b1-4)GlcNAc(b1-2)Man(a1-3)[GlcNAc(b1-3)Gal(b1-4)GlcNAc(b1-2)Man(a1-6)]Man(b1-4)GlcNAc(b1-4)GlcNAc
# Outline: as §1
# [27] = biological target: GlcNAc(b1-3)Gal(b1-4)GlcNAc(b1-2)Man(a1-3)[GlcNAc(b1-3)Gal(b1-4)GlcNAc(b1-2)Man(a1-6)]Man(b1-4)GlcNAc(b1-4)[Fuc(a1-6)]GlcNAc
# Outline: as §1
# [28] = biological target: GlcNAc(b1-3)Gal(b1-4)GlcNAc(b1-2)[GlcNAc(b1-3)Gal(b1-4)GlcNAc(b1-6)]Man(a1-6)[GlcNAc(b1-3)Gal(b1-4)GlcNAc(b1-2)Man(a1-3)]Man(b1-4)GlcNAc(b1-4)GlcNAc
# Outline: as §1
# [29] = biological target: GlcNAc(b1-3)Gal(b1-4)GlcNAc(b1-3)Gal(b1-4)GlcNAc
# Outline: as §1
# [30] = biological target: GlcNAc(b1-3)Gal(b1-4)GlcNAc(b1-3)Gal(b1-4)GlcNAc(b1-2)Man(a1-3)[GlcNAc(b1-3)Gal(b1-4)GlcNAc(b1-3)Gal(b1-4)GlcNAc(b1-2)Man(a1-6)]Man(b1-4)GlcNAc(b1-4)GlcNAc
# Outline: as §1
binder,measurement,setting,value
B1,glycan array binding signal (z-score),Glc(b1-6)Glc,-0.792
same,glycan array binding signal (z-score),GlcA(b1-3)Gal,-0.382
same,glycan array binding signal (z-score),GlcA(b1-3)GlcNAc,-0.352
same,glycan array binding signal (z-score),GlcA(b1-6)Gal,-0.081
same,glycan array binding signal (z-score),[1],0.326
same,glycan array binding signal (z-score),[2],0.751
same,glycan array binding signal (z-score),[3],0.555
same,glycan array binding signal (z-score),[4],-0.143
same,glycan array binding signal (z-score),[5],-0.2
same,glycan array binding signal (z-score),[6],0.611
same,glycan array binding signal (z-score),[7],-0.563
same,glycan array binding signal (z-score),[8],-0.113
same,glycan array binding signal (z-score),[9],-1.03
same,glycan array binding signal (z-score),[10],-0.88
same,glycan array binding signal (z-score),[11],0.777
same,glycan array binding signal (z-score),[12],0.898
same,glycan array binding signal (z-score),[13],-0.723
same,glycan array binding signal (z-score),[14],-0.779
same,glycan array binding signal (z-score),[15],-0.007
same,glycan array binding signal (z-score),[16],-0.485
same,glycan array binding signal (z-score),[17],-0.856
same,glycan array binding signal (z-score),[18],-0.855
same,glycan array binding signal (z-score),[19],-0.56
same,glycan array binding signal (z-score),[20],-1.02
same,glycan array binding signal (z-score),[21],-0.933
same,glycan array binding signal (z-score),[22],-0.633
same,glycan array binding signal (z-score),[23],-0.866
same,glycan array binding signal (z-score),GlcNAc(b1-3)Fuc,-0.242
same,glycan array binding signal (z-score),GlcNAc(b1-3)Gal,-0.436
same,glycan array binding signal (z-score),[24],-0.901
same,glycan array binding signal (z-score),GlcNAc(b1-3)Gal(b1-4)Glc,0.471
same,glycan array binding signal (z-score),[25],-0.042
same,glycan array binding signal (z-score),[26],-0.524
same,glycan array binding signal (z-score),[27],0.685
same,glycan array binding signal (z-score),[28],-1.04
same,glycan array binding signal (z-score),[29],-0.743
same,glycan array binding signal (z-score),[30],-0.197

# Rewritten tab-delimited: entries from further up.
binder	measurement	setting	value
B1	glycan array binding signal (z-score)	[19]	-0.56
same	glycan array binding signal (z-score)	[20]	-1.02

# Source: the supplement of paper PMC8728848
